± gives the standard deviation of the averaged measurements. The entries are a selection whose mix differs from that of the whole data set. Most entries show no effect beyond the scatter of the controls.
Compound: Nc1ncnc2c1ncn2[C@@H]1O[C@H](COP(=O)(O)OP(=O)(O)OP(=O)(O)O)[C@@H](O)[C@H]1O [adenosine triphosphate]
Experiment: NP40-soluble protein abundance relative to vehicle (solubility fold change) (ratio); higher = more soluble protein in presence of ATP
In short: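 Values are fold changes against the detergent-processed vehicle, based on vsn-normalised intensities. Jurkat crude lysate was treated at eight concentrations from 0.1 to 10 mM (10 min at room temperature, then 3 min at 37 °C), solubilised with 0.8% NP40 and benzonase, ultracentrifuged and analysed by TMT-labelled LC-MS/MS over three independent experiments.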

Chains of the proteins cited; added tags and fusions are not shown. Lines headed by an entry give the natural chain unless they say otherwise; changes in a name come on top.
UniProt Q9Y394: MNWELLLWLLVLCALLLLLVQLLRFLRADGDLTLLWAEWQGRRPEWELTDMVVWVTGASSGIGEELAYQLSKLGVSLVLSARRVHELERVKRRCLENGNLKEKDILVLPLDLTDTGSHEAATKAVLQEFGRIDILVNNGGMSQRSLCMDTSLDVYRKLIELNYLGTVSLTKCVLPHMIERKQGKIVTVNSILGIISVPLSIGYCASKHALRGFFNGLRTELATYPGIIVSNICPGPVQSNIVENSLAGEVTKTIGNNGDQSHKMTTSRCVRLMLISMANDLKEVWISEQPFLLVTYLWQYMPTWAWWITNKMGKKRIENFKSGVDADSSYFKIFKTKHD
UniProt Q9Y5S1: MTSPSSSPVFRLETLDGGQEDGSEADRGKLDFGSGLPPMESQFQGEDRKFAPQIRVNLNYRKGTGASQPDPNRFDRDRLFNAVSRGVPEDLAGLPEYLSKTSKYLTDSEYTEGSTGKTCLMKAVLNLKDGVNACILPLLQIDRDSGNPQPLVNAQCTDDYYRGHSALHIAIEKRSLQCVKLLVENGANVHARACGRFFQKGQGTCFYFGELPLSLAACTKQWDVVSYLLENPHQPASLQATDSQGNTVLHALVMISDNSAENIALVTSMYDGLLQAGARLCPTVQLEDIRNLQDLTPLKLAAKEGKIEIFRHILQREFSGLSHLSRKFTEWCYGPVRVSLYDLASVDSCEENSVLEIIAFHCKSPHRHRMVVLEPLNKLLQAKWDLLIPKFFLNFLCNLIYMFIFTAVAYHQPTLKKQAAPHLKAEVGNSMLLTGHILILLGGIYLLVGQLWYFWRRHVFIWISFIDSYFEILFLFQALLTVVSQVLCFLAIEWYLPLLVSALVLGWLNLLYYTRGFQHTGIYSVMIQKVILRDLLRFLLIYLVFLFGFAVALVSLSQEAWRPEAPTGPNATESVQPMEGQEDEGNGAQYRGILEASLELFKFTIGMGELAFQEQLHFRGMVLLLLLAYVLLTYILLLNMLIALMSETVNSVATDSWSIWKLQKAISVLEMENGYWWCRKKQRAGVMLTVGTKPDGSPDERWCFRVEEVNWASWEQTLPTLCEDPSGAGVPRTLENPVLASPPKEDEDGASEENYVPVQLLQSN
UniProt Q9Y508: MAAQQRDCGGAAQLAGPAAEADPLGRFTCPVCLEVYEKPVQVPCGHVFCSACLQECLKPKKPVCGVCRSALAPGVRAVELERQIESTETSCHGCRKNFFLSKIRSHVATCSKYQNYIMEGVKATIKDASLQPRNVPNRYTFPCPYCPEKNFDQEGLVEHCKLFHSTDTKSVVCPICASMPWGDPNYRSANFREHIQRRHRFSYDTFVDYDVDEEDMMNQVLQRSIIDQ
UniProt Q9Y5J7: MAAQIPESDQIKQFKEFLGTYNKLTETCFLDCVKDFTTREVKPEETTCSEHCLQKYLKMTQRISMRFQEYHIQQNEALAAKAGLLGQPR
UniProt Q9Y2S2: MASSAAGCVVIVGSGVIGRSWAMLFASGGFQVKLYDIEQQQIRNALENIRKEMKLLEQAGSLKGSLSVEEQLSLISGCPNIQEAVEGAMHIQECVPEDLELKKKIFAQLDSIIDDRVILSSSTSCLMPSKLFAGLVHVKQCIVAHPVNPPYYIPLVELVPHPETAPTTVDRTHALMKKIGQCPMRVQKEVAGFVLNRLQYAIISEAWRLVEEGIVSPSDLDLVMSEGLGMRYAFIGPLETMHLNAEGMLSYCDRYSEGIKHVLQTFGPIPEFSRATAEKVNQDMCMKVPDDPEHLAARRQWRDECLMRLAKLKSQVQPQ
UniProt Q9Y303: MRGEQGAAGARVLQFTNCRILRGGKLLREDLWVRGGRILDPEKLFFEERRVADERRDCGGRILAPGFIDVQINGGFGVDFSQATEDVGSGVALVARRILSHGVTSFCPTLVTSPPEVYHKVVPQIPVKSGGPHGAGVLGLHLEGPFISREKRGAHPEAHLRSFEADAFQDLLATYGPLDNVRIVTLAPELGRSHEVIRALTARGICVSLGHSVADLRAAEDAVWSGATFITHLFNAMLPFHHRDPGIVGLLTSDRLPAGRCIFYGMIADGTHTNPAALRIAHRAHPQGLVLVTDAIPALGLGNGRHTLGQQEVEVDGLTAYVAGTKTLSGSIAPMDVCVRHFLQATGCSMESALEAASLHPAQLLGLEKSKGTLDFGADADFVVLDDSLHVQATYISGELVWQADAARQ
UniProt Q9Y383: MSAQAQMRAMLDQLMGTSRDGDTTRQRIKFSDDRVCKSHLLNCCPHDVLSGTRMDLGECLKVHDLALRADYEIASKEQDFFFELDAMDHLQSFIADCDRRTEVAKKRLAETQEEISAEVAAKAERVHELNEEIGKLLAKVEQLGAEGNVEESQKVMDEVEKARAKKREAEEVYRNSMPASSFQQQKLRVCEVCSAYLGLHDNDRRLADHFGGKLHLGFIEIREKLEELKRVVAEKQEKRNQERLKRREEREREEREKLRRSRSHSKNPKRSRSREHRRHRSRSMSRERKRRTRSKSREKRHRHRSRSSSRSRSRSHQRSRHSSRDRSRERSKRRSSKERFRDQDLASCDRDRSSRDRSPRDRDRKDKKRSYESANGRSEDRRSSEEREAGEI
UniProt Q5VZ89: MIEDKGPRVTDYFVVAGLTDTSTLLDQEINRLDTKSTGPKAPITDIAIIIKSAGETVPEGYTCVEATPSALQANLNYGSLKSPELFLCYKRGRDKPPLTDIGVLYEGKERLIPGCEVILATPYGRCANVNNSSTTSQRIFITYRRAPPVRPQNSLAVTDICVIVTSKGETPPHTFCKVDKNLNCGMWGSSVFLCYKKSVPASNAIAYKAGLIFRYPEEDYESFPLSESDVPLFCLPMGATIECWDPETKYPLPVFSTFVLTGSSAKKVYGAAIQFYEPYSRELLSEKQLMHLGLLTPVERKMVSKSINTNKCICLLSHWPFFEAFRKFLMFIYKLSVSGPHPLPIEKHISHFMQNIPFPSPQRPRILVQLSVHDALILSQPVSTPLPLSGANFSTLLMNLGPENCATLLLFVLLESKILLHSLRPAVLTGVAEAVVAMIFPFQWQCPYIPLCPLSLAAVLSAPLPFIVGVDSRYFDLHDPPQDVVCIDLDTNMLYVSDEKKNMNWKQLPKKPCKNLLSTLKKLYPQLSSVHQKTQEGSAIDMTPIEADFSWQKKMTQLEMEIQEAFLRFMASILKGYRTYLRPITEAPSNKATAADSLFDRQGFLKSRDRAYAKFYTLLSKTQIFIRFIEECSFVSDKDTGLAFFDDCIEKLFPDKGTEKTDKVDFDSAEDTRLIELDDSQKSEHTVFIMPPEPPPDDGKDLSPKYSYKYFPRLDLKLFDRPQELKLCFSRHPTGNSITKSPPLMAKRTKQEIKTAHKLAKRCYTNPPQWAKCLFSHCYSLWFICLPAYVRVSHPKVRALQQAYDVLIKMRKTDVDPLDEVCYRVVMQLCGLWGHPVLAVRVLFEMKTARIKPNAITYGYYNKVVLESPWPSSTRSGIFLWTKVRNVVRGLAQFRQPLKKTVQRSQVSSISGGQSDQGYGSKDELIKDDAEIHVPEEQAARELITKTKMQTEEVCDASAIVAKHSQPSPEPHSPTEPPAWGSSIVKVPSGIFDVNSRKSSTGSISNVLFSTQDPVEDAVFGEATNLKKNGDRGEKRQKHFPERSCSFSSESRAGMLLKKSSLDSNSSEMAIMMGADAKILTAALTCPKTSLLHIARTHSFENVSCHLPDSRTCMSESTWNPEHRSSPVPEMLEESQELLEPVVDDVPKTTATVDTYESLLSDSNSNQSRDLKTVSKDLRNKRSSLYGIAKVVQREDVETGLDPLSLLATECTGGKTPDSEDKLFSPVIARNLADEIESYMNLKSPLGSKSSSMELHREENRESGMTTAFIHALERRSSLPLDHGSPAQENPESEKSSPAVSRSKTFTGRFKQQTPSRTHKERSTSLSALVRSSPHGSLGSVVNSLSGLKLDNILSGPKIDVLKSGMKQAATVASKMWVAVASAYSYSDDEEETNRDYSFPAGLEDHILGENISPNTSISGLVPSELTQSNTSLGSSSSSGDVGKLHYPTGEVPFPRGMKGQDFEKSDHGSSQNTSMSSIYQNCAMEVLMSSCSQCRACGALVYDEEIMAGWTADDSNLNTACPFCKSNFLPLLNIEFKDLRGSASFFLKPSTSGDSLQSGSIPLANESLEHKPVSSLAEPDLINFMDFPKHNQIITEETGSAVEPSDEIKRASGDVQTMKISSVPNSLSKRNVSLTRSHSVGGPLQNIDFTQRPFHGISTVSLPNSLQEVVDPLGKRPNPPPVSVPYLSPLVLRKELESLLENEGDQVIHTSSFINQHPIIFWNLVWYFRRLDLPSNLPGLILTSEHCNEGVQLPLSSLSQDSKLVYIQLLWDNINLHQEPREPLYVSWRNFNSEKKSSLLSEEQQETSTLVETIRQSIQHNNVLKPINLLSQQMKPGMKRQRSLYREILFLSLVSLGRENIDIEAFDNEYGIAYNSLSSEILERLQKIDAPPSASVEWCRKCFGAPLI
UniProt Q9Y6I9: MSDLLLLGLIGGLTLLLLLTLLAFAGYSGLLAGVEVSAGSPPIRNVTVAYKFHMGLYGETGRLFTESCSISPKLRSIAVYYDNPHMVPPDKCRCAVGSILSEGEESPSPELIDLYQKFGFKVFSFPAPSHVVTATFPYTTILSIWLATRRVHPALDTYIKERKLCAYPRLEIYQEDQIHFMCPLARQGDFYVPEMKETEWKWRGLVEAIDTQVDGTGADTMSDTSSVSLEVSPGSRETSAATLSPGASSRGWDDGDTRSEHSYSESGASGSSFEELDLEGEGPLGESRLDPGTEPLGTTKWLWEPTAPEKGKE
UniProt Q9Y2R4: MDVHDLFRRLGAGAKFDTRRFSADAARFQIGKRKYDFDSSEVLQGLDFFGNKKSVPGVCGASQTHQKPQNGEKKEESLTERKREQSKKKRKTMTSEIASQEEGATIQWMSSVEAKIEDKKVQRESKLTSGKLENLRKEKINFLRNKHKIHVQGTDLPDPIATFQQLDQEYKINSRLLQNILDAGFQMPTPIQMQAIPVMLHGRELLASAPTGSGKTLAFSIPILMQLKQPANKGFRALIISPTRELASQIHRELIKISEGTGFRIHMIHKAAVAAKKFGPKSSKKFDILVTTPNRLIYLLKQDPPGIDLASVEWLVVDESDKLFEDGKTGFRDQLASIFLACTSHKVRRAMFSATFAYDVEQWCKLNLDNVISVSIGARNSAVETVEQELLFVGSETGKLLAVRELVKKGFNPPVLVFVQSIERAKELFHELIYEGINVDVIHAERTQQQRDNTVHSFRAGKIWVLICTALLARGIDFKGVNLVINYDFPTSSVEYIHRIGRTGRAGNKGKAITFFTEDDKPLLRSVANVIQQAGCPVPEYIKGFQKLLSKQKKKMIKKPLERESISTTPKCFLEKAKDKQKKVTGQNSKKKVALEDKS
UniProt Q9Y2G5: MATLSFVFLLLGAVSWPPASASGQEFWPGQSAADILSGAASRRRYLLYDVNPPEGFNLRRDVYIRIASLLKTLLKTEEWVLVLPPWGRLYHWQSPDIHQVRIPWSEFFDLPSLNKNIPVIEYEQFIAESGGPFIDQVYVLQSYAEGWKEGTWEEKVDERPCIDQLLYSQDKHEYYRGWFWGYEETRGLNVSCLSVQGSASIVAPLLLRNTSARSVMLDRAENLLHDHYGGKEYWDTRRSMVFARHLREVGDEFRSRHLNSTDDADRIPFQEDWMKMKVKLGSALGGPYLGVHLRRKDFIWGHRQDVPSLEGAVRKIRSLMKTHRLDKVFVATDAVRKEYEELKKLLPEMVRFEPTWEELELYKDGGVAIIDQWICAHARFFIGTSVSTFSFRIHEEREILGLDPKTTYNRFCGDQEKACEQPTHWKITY
UniProt Q9Y2X3: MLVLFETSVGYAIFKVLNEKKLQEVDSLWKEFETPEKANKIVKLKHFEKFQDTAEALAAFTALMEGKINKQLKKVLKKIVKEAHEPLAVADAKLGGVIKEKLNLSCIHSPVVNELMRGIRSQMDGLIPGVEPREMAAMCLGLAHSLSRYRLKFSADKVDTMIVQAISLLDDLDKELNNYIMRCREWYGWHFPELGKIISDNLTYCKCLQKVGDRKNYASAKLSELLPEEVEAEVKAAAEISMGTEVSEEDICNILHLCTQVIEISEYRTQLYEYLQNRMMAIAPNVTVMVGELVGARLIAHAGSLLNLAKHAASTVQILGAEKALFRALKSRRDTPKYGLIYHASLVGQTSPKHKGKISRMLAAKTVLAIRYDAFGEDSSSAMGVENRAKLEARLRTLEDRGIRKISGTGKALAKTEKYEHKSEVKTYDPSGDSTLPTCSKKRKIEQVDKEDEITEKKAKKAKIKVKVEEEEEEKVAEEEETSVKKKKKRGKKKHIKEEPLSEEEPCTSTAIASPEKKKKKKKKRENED
UniProt Q9Y6A4: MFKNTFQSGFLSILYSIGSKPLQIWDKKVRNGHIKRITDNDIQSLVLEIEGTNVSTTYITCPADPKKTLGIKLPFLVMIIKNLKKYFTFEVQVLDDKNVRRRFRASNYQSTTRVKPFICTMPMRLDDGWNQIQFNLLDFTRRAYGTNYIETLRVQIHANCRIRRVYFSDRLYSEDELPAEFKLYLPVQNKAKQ

Target	NP40-soluble protein abundance (concentration: 0.1mM)	NP40-soluble protein abundance (concentration: 0.5mM)	NP40-soluble protein abundance (concentration: 1mM)	NP40-soluble protein abundance (concentration: 2mM)	NP40-soluble protein abundance (concentration: 4mM)	NP40-soluble protein abundance (concentration: 6mM)	NP40-soluble protein abundance (concentration: 8mM)	NP40-soluble protein abundance (concentration: 10mM)
UniProt Q9Y4D1 and related entries	0.979 ± 0.031	0.965 ± 0.043	–	–	–	–	–	–
UniProt Q9Y394 and related entries	1.04 ± 0.015	1.04 ± 0.016	–	–	–	–	–	–
UniProt Q9Y6I3 and related entries	0.964 ± 0.026	0.938 ± 0.04	0.932 ± 0.045	0.915 ± 0.018	0.915 ± 0.023	0.927 ± 0.037	0.907 ± 0.029	0.894 ± 0.014
PPIL1 (UniProt Q9Y3C6)	0.943 ± 0.045	0.919 ± 0.089	0.919 ± 0.019	0.9512 ± 0.0074	0.913 ± 0.034	0.963 ± 0.031	0.964 ± 0.016	0.902 ± 0.065
UniProt Q9Y4E8 and related entries	1.02 ± 0.046	1.01 ± 0.061	–	–	–	–	–	–
TRPV2 (UniProt Q9Y5S1)	1.06 ± 0.034	1.01 ± 0.051	1.02 ± 0.076	1.02 ± 0.073	0.999 ± 0.03	0.955 ± 0.0051	0.965 ± 0.048	0.976 ± 0.023
RNF114 (UniProt Q9Y508)	1.06 ± 0.073	1.06 ± 0.079	–	–	–	–	–	–
TIMM9 (UniProt Q9Y5J7)	0.95 ± 0.11	0.908 ± 0.078	–	–	–	–	–	–
UniProt Q9Y2S2 and related entries	1.01 ± 0.053	0.985 ± 0.023	–	–	–	–	–	–
UniProt Q9Y3P8 and related entries	0.912 ± 0.097	0.921 ± 0.045	–	–	–	–	–	–
ORC6 (UniProt Q9Y5N6)	0.962 ± 0.054	0.97 ± 0.048	–	–	–	–	–	–
UniProt Q9Y303 and related entries	1.04 ± 0.034	1 ± 0.056	0.995 ± 0.056	1.03 ± 0.069	1.03 ± 0.083	0.973 ± 0.12	1.02 ± 0.086	0.995 ± 0.063
UniProt Q9Y2H0 and related entries	0.907 ± 0.043	0.887 ± 0.059	0.921 ± 0.038	0.899 ± 0.068	0.922 ± 0.045	0.944 ± 0.025	0.861 ± 0.093	0.85 ± 0.052
LUC7L2 (UniProt Q9Y383)	1.14 ± 0.042	1.75 ± 0.13	1.84 ± 0.14	1.95 ± 0.034	2.05 ± 0.038	2.21 ± 0.066	2.12 ± 0.087	2.11 ± 0.095
R4GN35 and related entries (UniProt Q5VZ89)	1 ± 0.028	0.983 ± 0.032	–	–	–	–	–	–
TEX264 (UniProt Q9Y6I9)	0.965 ± 0.03	0.955 ± 0.022	0.918 ± 0.028	0.919 ± 0.024	0.91 ± 0.041	0.916 ± 0.061	0.867 ± 0.058	0.886 ± 0.029
FHOD1 (UniProt Q9Y613)	1.01 ± 0.062	1.01 ± 0.092	0.963 ± 0.062	1.01 ± 0.085	1.02 ± 0.058	1.01 ± 0.078	0.952 ± 0.068	0.96 ± 0.055
UniProt Q9Y2X0-2|Q9Y2X0-3|Q9Y2X0	1.1 ± 0.094	1.06 ± 0.042	–	–	–	–	–	–
DDX52 (UniProt Q9Y2R4)	1.02 ± 0.082	1.07 ± 0.083	1.11 ± 0.11	1.16 ± 0.17	1.31 ± 0.27	1.41 ± 0.23	1.51 ± 0.37	1.71 ± 0.49
UniProt Q9Y639 and related entries	0.894 ± 0.12	0.833 ± 0.13	0.919 ± 0.11	0.888 ± 0.06	0.938 ± 0.1	0.926 ± 0.084	0.896 ± 0.061	0.851 ± 0.11
UniProt Q9Y6M7-13|Q9Y6M7-6|Q9Y6M7-9|Q9Y6M7-5|A0A0A0MST8	1 ± 0.011	1.03 ± 0.026	1.05 ± 0.022	1.03 ± 0.026	1.05 ± 0.036	1.04 ± 0.032	1.06 ± 0.024	1.02 ± 0.034
UniProt Q9Y5P4 and related entries	1.01 ± 0.045	1.01 ± 0.057	0.9555 ± 0.0053	0.974 ± 0.025	0.948 ± 0.011	0.949 ± 0.024	0.93 ± 0.011	0.954 ± 0.026
POFUT2 (UniProt Q9Y2G5)	1.03 ± 0.062	1.01 ± 0.025	1 ± 0.037	1.04 ± 0.019	1.01 ± 0.012	1.02 ± 0.04	0.955 ± 0.029	0.975 ± 0.017
F11R (UniProt Q9Y624)	0.976 ± 0.082	0.942 ± 0.024	–	–	–	–	–	–
NOP58 (UniProt Q9Y2X3)	0.992 ± 0.051	0.999 ± 0.055	1.08 ± 0.062	1.1 ± 0.054	1.2 ± 0.054	1.35 ± 0.079	1.51 ± 0.042	1.71 ± 0.13
UniProt Q9Y3I0	1.02 ± 0.061	1.03 ± 0.068	0.997 ± 0.038	0.974 ± 0.025	0.979 ± 0.043	1.04 ± 0.04	1.02 ± 0.048	1.02 ± 0.048
UniProt Q9Y530	0.953 ± 0.046	0.984 ± 0.034	–	–	–	–	–	–
UniProt Q9Y6A4	1.02 ± 0.15	1.06 ± 0.099	–	–	–	–	–	–
UniProt Q9Y6X3	0.9612 ± 0.0053	1.07 ± 0.046	0.977 ± 0.053	1.06 ± 0.086	1.15 ± 0.25	1.09 ± 0.26	0.98 ± 0.057	1.11 ± 0.22

Laid out differently: entries from further up.
UniProt Q9Y5P4 and related entries
  NP40-soluble protein abundance (concentration: 0.1mM): 1.01 ± 0.045; NP40-soluble protein abundance (concentration: 0.5mM): 1.01 ± 0.057; NP40-soluble protein abundance (concentration: 1mM): 0.9555 ± 0.0053; NP40-soluble protein abundance (concentration: 2mM): 0.974 ± 0.025; NP40-soluble protein abundance (concentration: 4mM): 0.948 ± 0.011; NP40-soluble protein abundance (concentration: 6mM): 0.949 ± 0.024; NP40-soluble protein abundance (concentration: 8mM): 0.93 ± 0.011; NP40-soluble protein abundance (concentration: 10mM): 0.954 ± 0.026
POFUT2 (UniProt Q9Y2G5)
  NP40-soluble protein abundance (concentration: 0.1mM): 1.03 ± 0.062; NP40-soluble protein abundance (concentration: 0.5mM): 1.01 ± 0.025; NP40-soluble protein abundance (concentration: 1mM): 1 ± 0.037; NP40-soluble protein abundance (concentration: 2mM): 1.04 ± 0.019; NP40-soluble protein abundance (concentration: 4mM): 1.01 ± 0.012; NP40-soluble protein abundance (concentration: 6mM): 1.02 ± 0.04; NP40-soluble protein abundance (concentration: 8mM): 0.955 ± 0.029; NP40-soluble protein abundance (concentration: 10mM): 0.975 ± 0.017

From the supplement of paper PMC6411743
